Reference: PubChem BioAssay AID2417 (National Center for Advancing Translational Sciences (NCATS), 2010)
Out of some 140,000 compounds screened, about 4,300 (3.1%) were called active. The inconclusive results got no clear call from the source; some entries with a clear call stand among them for comparison.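 The calls were made as follows: active = readout at or below -70, meaning at least 70% loss of cells showing the perinucleolar compartment, a nuclear body marking cancer cells; inconclusive = readout between -30 and a set limit; inactive = the rest.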

Assay: High Content Assay for Compounds that inhibit the Assembly of the Perinucleolar Compartment;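 also: plate controls were DMSO wells for no effect and camptothecin positive control wells for full effect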
Settings: PC3M PTB-GFP, PNC prevalence imaging, 16 h; at 10 µM; hits give low values
Outline: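 Read-out is percentage of cells bearing a perinucleolar compartment, from automated 20x imaging of fixed, Hoechst-stained PC3M PTB-GFP cells. Cells were seeded 4 h, then exposed 16 h to compound (23 nl of library stock) in duplicate plates.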

| SMILES | activity change (PNC), negative = inhibition |
| --- | --- |
| CCCSc1cc(NCCOC(C)=O)c([N+](=O)[O-])c2nonc12 | inactive: 10.8% |
| CC1CCCC(C)N1C(=O)C1CCCCC1 (stereo unspecified) | inconclusive: -51.8% |
| O=C(c1ccc(F)cc1)N1CCN(Cc2ccccc2Br)CC1 | active: -98.5% |
| O=C(COc1ccc2oc(-c3ccccc3)cc(=O)c2c1)Nc1ccccc1 | active: -112% |
| O=C1N(Cc2ccccc2F)c2ccccc2C12OCCCO2 | inactive: 9.09% |
| COc1cccc(-c2nc(C(N)=O)c3[nH]c(=O)n(-c4ccccc4)c3n2)c1OC | inconclusive: -46.6% |
| Cn1c(N)c(C(=O)CCl)c(=O)n(C)c1=O | inactive: -3.59% |
| N#CC1=C(N)Oc2ccc3ccc(O)cc3c2C1c1ccsc1 (stereo unspecified) | inconclusive: -62.4% |
| CC(C)CSc1nc2ccccc2n1CC(N)=O | inconclusive: -47.2% |
| C=C(C)CNC(=S)Nc1sc2c(c1C(=O)OCC)CC(C)(C)OC2 | inactive: -8.64% |
| O=C(OCC(=O)N1c2ccccc2Sc2ccccc21)C1CC(=O)N(Cc2ccco2)C1 (stereo unspecified) | inactive: -21.1% |
| Clc1ccc(C2=CSC3=NCCN23)cc1Cl | inconclusive: -52.9% |
| O=c1cc(C23CC4CC(CC(C4)C2)C3)[nH][nH]1 | inactive: -2.42% |
| CCCn1nc(NC(=O)c2cccs2)c2cc3cc(OC)ccc3nc21 | active: -90.4% |
| Cc1ccc(NC(=O)CCc2c(C)nc3ncnn3c2C)nc1 | inconclusive: -31.6% |
| CN1CCc2c(sc3ncn4nc(-c5ccccc5O)nc4c23)C1 | inconclusive: -41.8% |
| CN(CC(=O)O)Cc1nc2ccccc2[nH]1 | inconclusive: -34% |
| CCCCCCOc1ccc(OCC(O)CN2C(=O)NC(C)(C)C2=O)cc1 (stereo unspecified) | inconclusive: -34.6% |
| Cc1ccccc1NC(=S)N(C)CCc1ccccn1 | inconclusive: -54.8% |
| CC1Cn2c(nnc2-c2ccc(F)cc2)S1 (stereo unspecified) | inconclusive: -44.2% |
| COc1cc2cc(C)nc(Cc3cccc4ccccc34)c2cc1OC | inconclusive: -50.3% |
| O=C(/C=C/c1cccc([N+](=O)[O-])c1)NCc1ccc2c(c1)OCO2 | inconclusive: -35.7% |
| COc1ccc(S(=O)(=O)N/N=C\c2ccc(OC)c(COc3ccc(C)cc3[N+](=O)[O-])c2)cc1 | inconclusive: -41.5% |
| CC(C)C(=O)Nc1ccc(Nc2ccccc2)cc1 | inconclusive: -53.5% |
| CCOc1ccc(-n2c(C)nc3cc(C(=O)NCCN4CCOCC4)ccc32)cc1 | inconclusive: -35.8% |
| CC1(C)CC(=O)C(C(=O)Cc2ccccc2[N+](=O)[O-])C(=O)C1 | inconclusive: -61.1% |

Reformatted as labelled records: entries from further up.
Cc1ccc(NC(=O)CCc2c(C)nc3ncnn3c2C)nc1
  activity change (PNC), negative = inhibition: inconclusive: -31.6%
CN1CCc2c(sc3ncn4nc(-c5ccccc5O)nc4c23)C1
  activity change (PNC), negative = inhibition: inconclusive: -41.8%
